Results taken from PubChem BioAssay AID504834 (National Center for Advancing Translational Sciences (NCATS), 2011).
Hit rate of the full screen: of about 320,000 compounds, about 22,000 (6.9%) were called active. The inconclusive results got no clear call from the source; some entries with a clear call stand among them for comparison. Calls come from the whole dose curve; as a rule, active = well fitted inhibition curve with a large enough effect; inconclusive = small, poorly fitted or top-dose-only effect, or another doubt; inactive = no such curve, though single readings can be large or run the other way. Where the call is inconclusive, the potency comes from a doubtful curve fit.

assay: Primary qHTS for delayed death inhibitors of the malarial parasite plastid, 96 hour incubation; settings: P. falciparum luciferase reporter growth; series mostly up to 28.7 µM; activity change, negative = inhibition: at the top concentration
In short: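 Erythrocytes infected with luciferase-expressing P. falciparum were dispensed at 2% hematocrit and 0.05% parasitemia (final), then incubated with compounds 96 hours at 37 C in 5% CO2. Luminescence after detection reagent addition reported growth.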
% is set by controls: 0 for no effect and ±100 for the full control effect; potency is the fitted concentration of half-maximal effect.

SMILES	activity change, negative = inhibition	Potency
CC(Oc1ccccc1)C(=O)N=Nc1c(O)[nH]c2ccc(Br)cc12 (stereo unspecified)	inactive: 10.4%	
COc1ccc(-c2csc(NC(=O)COC(=O)Cc3ccc(Cl)cc3Cl)n2)cc1	inactive: 277%	
CC1(C)OC(=O)C(=CNC(=O)c2c(F)cccc2F)C(=O)O1		inconclusive: 0.0004 µM [inhibitor]
CC(C)(C)c1ccc(-c2noc(CCC(=O)NCc3ccco3)n2)cc1	inactive: 327%	
Cc1cccc(NC(=O)C(c2cccc([N+](=O)[O-])c2)N2CCCCC2)c1 (stereo unspecified)		inconclusive: 13.1 µM [inhibitor, partial curve, poor fit]
CCOC(=O)c1c(S(=O)(=O)NCC(C)c2ccccc2)c(C)n(C)c1C (stereo unspecified)		inconclusive: 0.657 µM [inhibitor, full curve, poor fit]
CC(C)c1ccc(N(CC(=O)NC(C)(C)C)C(=O)CCC(=O)Nc2nccs2)cc1		inconclusive: 18.5 µM [inhibitor, single point]
O=C(CN1C2=NCCN2c2ccccc21)c1ccc(Br)s1		inconclusive: 18.5 µM [inhibitor, single point]
CCS(=O)(=O)c1ccc(-c2csc(-c3ccccc3)n2)c(Cl)c1Cl		inconclusive: 18.5 µM [inhibitor, single point]
O=[N+]([O-])c1cccc(-c2cn3ccccc3n2)c1	inactive: 17.8%	
CCOC(=O)N1CCN(C(=O)COc2ccc(S(=O)(=O)NCc3ccccc3)cc2)CC1		inconclusive: 11.7 µM [inhibitor, single point]
C=CCn1c(O)c(C=Nc2ccccc2)sc1=S		inconclusive: 0.0131 µM [inhibitor, full curve, poor fit]
CC(C)(C)C(=O)Nc1nc2c(c(=O)[nH]1)CCCC2	inactive: 27.8%	
Cc1cc(NS(=O)(=O)c2ccc(NC(=O)COc3c(C)cc(Br)cc3C)cc2)no1		active: 9.28 µM
CCc1nc(SCC(=O)Nc2ccc(F)cc2F)c2c(=O)n(C)c(=O)n(C)c2n1	inactive: 35.3%	
c1ccc(-c2csc3ncnc(-n4cnc5ccccc54)c23)cc1	inactive: 84.5%	
C/C(=N\NC(=O)c1ccc(N/N=C(\C)c2ccncc2)cc1)c1ccncc1		inconclusive: 11.7 µM [inhibitor, single point]
CCc1cccc(CC)c1-n1c(SCc2cc(=O)n3ccsc3n2)nnc1-c1cccnc1		active: 10.4 µM
CC(=O)Nc1ccc(S(=O)(=O)N2CCN(Cc3cccs3)CC2)cc1	inactive: -14.9%	
CCN(CC)CCn1c2ccccc2c2nc3ccccc3nc21	inactive: 19.9%	
CCCCCOC(=O)CC(C(=O)OCCCCC)N1CCCCC1 (stereo unspecified)		inconclusive: 18.5 µM [inhibitor, single point]
Cc1cc(-c2nn(-c3ccccc3F)cc2CN2CCN(c3ccccn3)CC2)c(C)s1	inactive: 3.3%	
Cc1ccc(C(=O)/C=C/c2c(C)nn(-c3ccccc3)c2Cl)cc1		inconclusive: 11.7 µM [inhibitor, single point]

SMILES	activity change, negative = inhibition	Potency
CC(C)CCNC(=O)c1cn(CC(C)C)c(=O)c2c1c1ccccc1n2C		inconclusive: 18.5 µM [inhibitor, single point]
Cc1cccc(NC(=O)c2cc([N+](=O)[O-])ccc2NC2CCCCC2)c1		inconclusive: 18.5 µM [inhibitor, single point]
COc1cc(OC)c2cc(C(=O)N[C@H](C(=O)N3CCC[C@H]3C(=O)O)C(C)C)n(C)c2c1		inconclusive: 13.1 µM [inhibitor, single point]
O=C(O)CSc1nnc(Nc2ccccc2)n1-c1ccccc1		inconclusive: 18.5 µM [inhibitor, single point]
COc1ccc(C)cc1NCc1cc(=O)oc2cc(-c3ccccc3)c(O)cc12		active: 1.04 µM
COC(=O)Nc1nc2ccc(-c3n[nH]c(=O)c4ccccc34)cc2[nH]1	inactive: 66%	
O=C(O)CCn1cc(-c2ccc(F)cc2)nc1-c1ccncc1	inactive: 68.4%	
Cc1cc(C)cc(NC(=O)CSc2ccc(-c3ccccn3)nn2)c1		inconclusive: 18.5 µM [inhibitor, single point]
CCN1CCN(C(=O)COc2ccc(S(=O)(=O)Nc3ccc(Cl)cc3)cc2)CC1		inconclusive: 10.4 µM [inhibitor, partial curve]
COC(=O)C1(C)NC(c2ccc(O)cc2)C2C(=O)N(c3ccc(C)cc3)C(=O)C21 (stereo unspecified)		active: 4.65 µM
CCn1c(SCc2ccc(Cl)c(Cl)c2)nnc1C(C)NC(=O)c1ccc(OC)cc1 (stereo unspecified)		inconclusive: 9.28 µM [inhibitor, single point]
COc1ccc(-c2ccc(CCC(=O)O)n2Cc2ccco2)cc1	inactive: 5.38%	
COc1cc(C)nc(N2CCC(C(=O)NCC3CCCO3)CC2)n1 (stereo unspecified)		inconclusive: 10.4 µM [inhibitor, single point]
COc1ccc(NC(=O)CSc2nc3ccccc3c3nc4ccccc4n23)cc1		inconclusive: 0.0033 µM [inhibitor, full curve, poor fit]
O=C(O)CN1C(=O)/C(=C\c2cc(Br)ccc2OCc2ccccc2F)SC1=S		inconclusive: 18.5 µM [inhibitor, single point]
CC(C)(C)C(=O)COC(=O)CNC(=O)c1ccc(Oc2ccccc2)cc1	inactive: 4.75%	
Cc1cccc(NC(=O)CN2CCN(C(=O)c3ccc(OCc4cn5ccccc5n4)cc3)CC2)c1C		inconclusive: 1.85 µM [inhibitor, partial curve, poor fit]
Cc1ccc(-c2nnn(CC(=O)NC3CC4CCC3C4)n2)cc1 (stereo unspecified)	inactive: -18.3%	
COc1cccc(CNc2nc3nc(C)c(Cl)c(C)n3n2)c1	inactive: 22.8%	
O=C(c1ccc(S(=O)(=O)N2CCCCC2)cc1)N1CCCc2ccccc21		active: 13.1 µM
Cc1cccc(-c2nc(Nc3cccc(O)c3)c3ccccc3n2)c1		inconclusive: 3.29 µM [inhibitor, full curve, poor fit]
Cc1ccc2c(CN3C(=O)NC(C)(c4ccc5c(c4)OCO5)C3=O)cc(=O)oc2c1 (stereo unspecified)		inconclusive: 18.5 µM [inhibitor, single point]
O=C(Nc1ccc(Oc2cccc(C(F)(F)F)c2)nc1)c1cccs1		inconclusive: 1.65 µM [inhibitor, full curve]

Quoted at random: 2 records from the list, in no set order.
SMILES	activity change, negative = inhibition	Potency
Cc1ccc(-c2nnn(CC(=O)NC3CC4CCC3C4)n2)cc1 (stereo unspecified)	inactive: -18.3%	
COc1cc(OC)c2cc(C(=O)N[C@H](C(=O)N3CCC[C@H]3C(=O)O)C(C)C)n(C)c2c1		inconclusive: 13.1 µM [inhibitor, single point]
